In data set [1] the target is T1, His6-MBP-SPL13 (UniProt A0A3Q7HAE1).
T1 sequence (looked up, limits assumed): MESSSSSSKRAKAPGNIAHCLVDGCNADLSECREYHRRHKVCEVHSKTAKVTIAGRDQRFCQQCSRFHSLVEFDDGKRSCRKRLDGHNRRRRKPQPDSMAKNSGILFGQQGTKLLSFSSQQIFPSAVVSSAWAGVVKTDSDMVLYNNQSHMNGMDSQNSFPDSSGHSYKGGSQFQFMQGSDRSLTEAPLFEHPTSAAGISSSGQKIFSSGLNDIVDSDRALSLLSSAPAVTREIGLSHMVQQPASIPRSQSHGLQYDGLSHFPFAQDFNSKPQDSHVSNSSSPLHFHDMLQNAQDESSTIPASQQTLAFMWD
Nature of the data set: EMSA. Conditions: LightShift Chemiluminescent EMSA Kit, 20 uL reaction, 30 min at room temperature, 6% native polyacrylamide gel; salt and pH not stated; recombinant protein; protein details: N-terminal His6-MBP; label: 3' biotin.

Data set [2] deals with T1, His6-MBP-SPL13. Briefly: competition with a labelled probe. Conditions: LightShift Chemiluminescent EMSA Kit, 20 uL reaction, 30 min at room temperature, 6% native polyacrylamide gel, salt and pH not stated, recombinant protein, protein details: N-terminal His6-MBP.

For at least one entry, the source does not settle the construct or the ends of the probe. For part of these data: Negatives hold for the conditions tested. At least one verdict was read from the data and is not stated in words by the source. Where a protein sequence is shown, tags need not be part of it.

Regarding “ATTTTGTAATAAAATATTGTACTTGCTCTTTTCTTATTG (double strand) [SFT probe 2]”, the binding result in data set [1] is given as “binds”. Still for that read-out and setting: the entry for “ATTTTGTAATAAAATATTAAGATTGCTCTTTTCTTATTG (double strand) [SFT mProbe 2]” is “no binding”; for “TAACTAGCTAGCTAGGAGTACTCTTGTGTTGTGTTTTAG (double strand) [SFT probe 1]” it is “binds”. Consider “TAACTAGCTAGCTAGGAAAGATCTTGTGTTGTGTTTTAG (double strand) [SFT mProbe 1]”, for which, in data set [1], the binding result was “no binding”. For “TAACTAGCTAGCTAGGAGTACTCTTGTGTTGTGTTTTAG (double strand) [SFT probe 1 unlabelled competitor]”, in data set [2] (labelled probe 1, competitor ratios 1:1 and 1:2), the binding result is reported as “binds”. “ATTTTGTAATAAAATATTGTACTTGCTCTTTTCTTATTG (double strand) [SFT probe 2 unlabelled competitor]”: the binding result in data set [2] (labelled probe 2, competitor ratios 1:1 and 1:2) is listed as “binds”.

For the origin of these results see article PMC7336387.
